No constants are given. Whether binding was seen depends on the method and setting. In cells and extracts the contact can be indirect. These calls come from enrichment with a bait or labelling near it, and not all partners need be listed. Tags and fused reporters may be left off the sequences shown.
Molecular target: T1, GFP-Syntaxin 11 (UniProt O75558)
T1 sequence: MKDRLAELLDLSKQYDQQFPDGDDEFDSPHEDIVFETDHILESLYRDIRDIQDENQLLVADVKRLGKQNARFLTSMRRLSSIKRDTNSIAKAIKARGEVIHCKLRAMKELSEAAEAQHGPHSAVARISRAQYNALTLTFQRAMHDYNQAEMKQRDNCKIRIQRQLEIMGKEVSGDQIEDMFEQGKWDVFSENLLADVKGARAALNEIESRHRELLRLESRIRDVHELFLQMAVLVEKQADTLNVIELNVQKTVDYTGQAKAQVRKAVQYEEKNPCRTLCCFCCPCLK
Test: affinity purification with mass spectrometry; GFP-STX11 (or GFP alone) expressed in primary human CD8+ T cells; 24 h later cells activated with anti-CD3 and anti-CD28-coated beads, lysed; co-IP kit (Thermo Scientific) with anti-GFP-coated beads; bound proteins run on SDS/PAGE and identified by mass spectrometry

binding: binds
B1: Extended-Synaptotagmin-1 (protein, UniProt Q9BSJ8 1-1104)
chain: MERSPGEGPSPSPMDQPSAPSDPTDQPPAAHAKPDPGSGGQPAGPGAAGEALAVLTSFGRRLLVLIPVYLAGAVGLSVGFVLFGLALYLGWRRVRDEKERSLRAARQLLDDEEQLTAKTLYMSHRELPAWVSFPDVEKAEWLNKIVAQVWPFLGQYMEKLLAETVAPAVRGSNPHLQTFTFTRVELGEKPLRIIGVKVHPGQRKEQILLDLNISYVGDVQIDVEVKKYFCKAGVKGMQLHGVLRVILEPLIGDLPFVGAVSMFFIRRPTLDINWTGMTNLLDIPGLSSLSDTMIMDSIAAFLVLPNRLLVPLVPDLQDVAQLRSPLPRGIIRIHLLAARGLSSKDKYVKGLIEGKSDPYALVRLGTQTFCSRVIDEELNPQWGETYEVMVHEVPGQEIEVEVFDKDPDKDDFLGRMKLDVGKVLQASVLDDWFPLQGGQGQVHLRLEWLSLLSDAEKLEQVLQWNWGVSSRPDPPSAAILVVYLDRAQDLPLKKGNKEPNPMVQLSIQDVTQESKAVYSTNCPVWEEAFRFFLQDPQSQELDVQVKDDSRALTLGALTLPLARLLTAPELILDQWFQLSSSGPNSRLYMKLVMRILYLDSSEICFPTVPGCPGAWDVDSENPQRGSSVDAPPRPCHTTPDSQFGTEHVLRIHVLEAQDLIAKDRFLGGLVKGKSDPYVKLKLAGRSFRSHVVREDLNPRWNEVFEVIVTSVPGQELEVEVFDKDLDKDDFLGRCKVRLTTVLNSGFLDEWLTLEDVPSGRLHLRLERLTPRPTAAELEEVLQVNSLIQTQKSAELAAALLSIYMERAEDLPLRKGTKHLSPYATLTVGDSSHKTKTISQTSAPVWDESASFLIRKPHTESLELQVRGEGTGVLGSLSLPLSELLVADQLCLDRWFTLSSGQGQVLLRAQLGILVSQHSGVEAHSHSYSHSSSSLSEEPELSGGPPHITSSAPELRQRLTHVDSPLEAPAGPLGQVKLTLWYYSEERKLVSIVHGCRSLRQNGRDPPDPYVSLLLLPDKNRGTKRRTSQKKRTLSPEFNERFEWELPLDEAQRRKLDVSVKSNSSFMSRERELLGKVQLDLAETDLSQGVARWYDLMDNKDKGSS

— publication PMC10897422
